The values are deposited in ChEMBL (CHEMBL3988442, “University of Dundee, Small-Polar-MMV Screening Library” (2021)).

By UniProt entry, the sequences of proteins in these tests, tags left out. Residues count along the entry.
UniProt I6X8D2, whole entry: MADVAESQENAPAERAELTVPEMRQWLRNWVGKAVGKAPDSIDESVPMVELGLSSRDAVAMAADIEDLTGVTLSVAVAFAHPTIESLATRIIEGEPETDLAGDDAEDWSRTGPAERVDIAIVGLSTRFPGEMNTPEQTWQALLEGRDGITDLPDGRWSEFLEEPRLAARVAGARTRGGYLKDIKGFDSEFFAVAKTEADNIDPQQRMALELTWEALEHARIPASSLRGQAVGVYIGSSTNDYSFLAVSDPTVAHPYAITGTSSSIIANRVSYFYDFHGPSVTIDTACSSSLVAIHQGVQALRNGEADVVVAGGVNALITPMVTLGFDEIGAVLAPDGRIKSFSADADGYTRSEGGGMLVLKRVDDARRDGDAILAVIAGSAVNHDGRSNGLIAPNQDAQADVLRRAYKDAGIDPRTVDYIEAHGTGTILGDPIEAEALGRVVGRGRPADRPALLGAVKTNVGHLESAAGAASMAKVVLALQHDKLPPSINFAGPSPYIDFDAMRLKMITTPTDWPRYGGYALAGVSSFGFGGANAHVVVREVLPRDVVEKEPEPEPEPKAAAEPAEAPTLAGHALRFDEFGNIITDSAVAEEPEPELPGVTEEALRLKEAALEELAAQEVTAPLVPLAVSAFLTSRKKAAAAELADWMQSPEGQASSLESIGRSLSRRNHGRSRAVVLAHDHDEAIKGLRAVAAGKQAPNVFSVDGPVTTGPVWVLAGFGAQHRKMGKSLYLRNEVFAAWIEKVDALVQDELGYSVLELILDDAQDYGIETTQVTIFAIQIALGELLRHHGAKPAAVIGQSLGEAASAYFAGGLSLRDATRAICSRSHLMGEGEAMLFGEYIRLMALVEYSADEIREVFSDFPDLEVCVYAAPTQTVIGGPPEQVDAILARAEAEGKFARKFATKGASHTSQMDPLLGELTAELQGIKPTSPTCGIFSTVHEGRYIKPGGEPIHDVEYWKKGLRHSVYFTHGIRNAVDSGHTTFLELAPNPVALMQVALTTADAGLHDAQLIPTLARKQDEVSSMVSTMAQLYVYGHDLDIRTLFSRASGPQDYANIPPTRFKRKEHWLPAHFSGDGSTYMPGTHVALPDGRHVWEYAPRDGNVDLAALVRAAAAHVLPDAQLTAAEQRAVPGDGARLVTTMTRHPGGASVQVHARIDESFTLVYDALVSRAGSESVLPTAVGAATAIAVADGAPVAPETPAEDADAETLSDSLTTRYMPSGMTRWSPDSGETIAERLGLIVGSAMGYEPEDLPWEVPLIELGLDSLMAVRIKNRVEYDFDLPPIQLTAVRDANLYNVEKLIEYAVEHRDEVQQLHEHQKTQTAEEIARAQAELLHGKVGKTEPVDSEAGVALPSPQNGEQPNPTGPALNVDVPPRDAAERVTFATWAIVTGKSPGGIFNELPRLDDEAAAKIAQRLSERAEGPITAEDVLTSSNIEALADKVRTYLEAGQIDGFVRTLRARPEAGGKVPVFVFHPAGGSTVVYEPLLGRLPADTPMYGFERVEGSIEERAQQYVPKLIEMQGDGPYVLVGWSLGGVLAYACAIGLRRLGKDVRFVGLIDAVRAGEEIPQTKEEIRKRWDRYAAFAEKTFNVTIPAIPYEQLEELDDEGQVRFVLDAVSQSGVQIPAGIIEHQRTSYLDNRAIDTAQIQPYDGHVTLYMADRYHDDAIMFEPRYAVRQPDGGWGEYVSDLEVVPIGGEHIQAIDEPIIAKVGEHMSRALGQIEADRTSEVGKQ
UniProt Q8IDJ8, 1-583: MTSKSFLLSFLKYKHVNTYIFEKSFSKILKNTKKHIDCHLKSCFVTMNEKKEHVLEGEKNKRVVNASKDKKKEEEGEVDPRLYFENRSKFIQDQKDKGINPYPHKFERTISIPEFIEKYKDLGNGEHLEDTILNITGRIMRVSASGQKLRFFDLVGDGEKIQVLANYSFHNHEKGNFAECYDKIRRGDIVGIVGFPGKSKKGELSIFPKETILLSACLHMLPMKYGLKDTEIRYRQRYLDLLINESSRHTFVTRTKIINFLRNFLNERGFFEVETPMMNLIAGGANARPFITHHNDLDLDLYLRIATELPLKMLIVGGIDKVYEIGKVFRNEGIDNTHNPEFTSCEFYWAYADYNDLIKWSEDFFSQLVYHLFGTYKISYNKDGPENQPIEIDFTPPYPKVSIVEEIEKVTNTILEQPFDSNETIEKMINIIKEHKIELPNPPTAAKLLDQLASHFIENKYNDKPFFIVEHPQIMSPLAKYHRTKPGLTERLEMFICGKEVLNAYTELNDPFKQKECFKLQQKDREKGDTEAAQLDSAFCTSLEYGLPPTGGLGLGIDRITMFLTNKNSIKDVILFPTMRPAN
UniProt P9WNZ1, whole entry: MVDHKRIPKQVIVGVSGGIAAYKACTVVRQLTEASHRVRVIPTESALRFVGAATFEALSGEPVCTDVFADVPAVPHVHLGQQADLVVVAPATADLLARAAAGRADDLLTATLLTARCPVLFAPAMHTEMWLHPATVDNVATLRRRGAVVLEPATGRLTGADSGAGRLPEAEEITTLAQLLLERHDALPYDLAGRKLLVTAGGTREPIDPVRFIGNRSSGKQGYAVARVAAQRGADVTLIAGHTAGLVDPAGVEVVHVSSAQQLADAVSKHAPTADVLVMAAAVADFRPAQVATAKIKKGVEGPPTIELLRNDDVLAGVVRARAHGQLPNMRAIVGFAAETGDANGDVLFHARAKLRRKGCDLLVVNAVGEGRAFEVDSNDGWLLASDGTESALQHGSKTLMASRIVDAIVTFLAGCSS

Toxoplasma: 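Assay of Toxoplasma gondii numbers, read through their beta-galactosidase reporter with a colour substrate. Tested at 10 µM. Higher reads as fewer parasites (inferred from which compounds were picked for retests). Size under these conditions: about 67,000 compounds, about 260 of them at 50% or above in at least one test.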
Pks13 thioesterase: 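Polyketide synthase Pks13, Mycobacterium tuberculosis (UniProt I6X8D2). Enzyme assay of the thioesterase domain of polyketide synthase 13; the read-out is not stated. Concentration: 30 µM. The record gives no direction; the compounds picked for IC50 retests had high values, so higher reads as stronger inhibition. About 67,000 compounds were tested under these conditions; 0.46% (about 300) showed 50% or more at least once.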
PfKRS1: 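Enzyme assay of the cytosolic lysyl-tRNA synthetase in 384-well plates, read by luminescence. Target: Lysine-tRNA ligase, Plasmodium falciparum 3D7 (UniProt Q8IDJ8). Tested at 30 µM. Direction is inferred from only a few compounds that gave an IC50; most scored high, so higher reads as stronger inhibition. About 69,000 compounds were tested under these conditions; 0.071% (about 49) showed 50% or more at least once.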
CoaBC: 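Enzyme assay of CoaBC with a phosphate dye (Biomol Green) read at 650 nm. Target: Coenzyme A biosynthesis protein CoaBC, Mycobacterium tuberculosis (UniProt P9WNZ1). Compounds at 30 µM. Higher reads as stronger inhibition, judged from the few compounds that gave an IC50. Most strong results did not repeat in a second test. Size under these conditions: about 67,000 compounds, about 40 of them at 50% or above in at least one test.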

Values are the deposited “Percent Effect”, in %.
The controls that fix the scale are not given in the record; negative values are as filed.
The compounds are a random part of those screened.
A dash means the value is not listed here; it may have been measured.

Compound,Toxoplasma,Pks13 thioesterase,PfKRS1,CoaBC
CCCC(=O)N1CCC(c2cc[nH]n2)C1 (stereo unspecified),-,2.61,0,-3.8
Cn1ncnc1CNC1CCc2cc(Cl)ccc21 (stereo unspecified),3.689,4.126,2.02,1.463
Cc1[nH]c2ccc(CNC(=O)c3ccc(CN4CCCC4)o3)cc2c1C,-13.94,-5.228,-2.46,2.36
Cn1cc(NC(=O)CCc2ccsc2)ccc1=O,-3.76,-17.06,7.869,-
CC(C)(C)c1ncc2c(n1)CN(C(=O)c1ccc(-c3nc[nH]n3)cc1)C2,17.92,-28.85,-2.184,14.41
COc1ncccc1NC(=O)c1[nH]nc(C(C)C)c1Br,2.805,-18.31,-1.576,-
Cc1nc(CNC(=O)N2CCN(c3ccc(Cl)cn3)CC2)sc1C,-0.3409,50.79,3.239,1.556
O=C(Nc1c(F)cccc1F)N1CC(c2nc(C3CC3)no2)C1,3.346,-26.71,8.567,-7.822
COc1cccc(C2CCCN2CCCNS(C)(=O)=O)c1 (stereo unspecified),5.642,-0.2342,0.3683,-3.412
CN1CCC(N2C[C@H](O)C[C@H]2c2nc(Cc3ccccc3)no2)CC1,-5.019,10.68,0.5015,-3.837
O=C(O)C(F)(F)F.[H][C@@]12CCN(Cc3ccco3)[C@@]1([H])CCC(=O)N2,-17.05,-,-,-
COC[C@H]1CCC[C@H]1Nc1ncnc2c1CCNCC2,-0.7318,1.548,-1.412,-1.942
O=C(CC1CC1)N1CC[C@H]2[C@@H]1CCC(=O)N2Cc1ccncc1,-,6.835,4.589,4.511
Cc1ccc(Cl)c(CN2CCC3(CC2)C(C(=O)O)CC(=O)N3C)c1F (stereo unspecified),8.225,-34.1,5.96,-0.6536
CN1CCN(Cc2cn3c(n2)CN(C(=O)c2cccn2C)CC3)CC1.O=C(O)C(F)(F)F.O=C(O)C(F)(F)F,10.71,-,-,-
O=C(CO)N1CCOC2(CCCN(c3ncc(F)cn3)C2)C1.O=C(O)C(F)(F)F (stereo unspecified),4.782,-,-,-
COc1nc2c(cc1C(=O)NCc1nc(CSC)no1)CCC2,1.722,27.85,-1.767,3.44
COCCCN1CCC(NC2CSCCc3ccccc32)CC1 (stereo unspecified),3.245,-17.77,4.806,-4.634
COC(=O)c1ccc(CN2CCC(c3n[nH]c(C)n3)CC2)s1,-5.172,-8.676,1.783,8.754
O=C(O)C(F)(F)F.[H][C@@]12CCN(c3nnc(C)s3)[C@]1([H])CC[C@@H](c1nc(C)no1)O2,2.431,-,-,-
Cc1ccc(OC2(C(=O)O)CCN(C(=O)CCc3ccco3)CC2)cn1,27.78,6.771,-2.197,2.99
CCc1nc2ccccc2c(=O)n1CC1(O)CCN(S(C)(=O)=O)CC1.Cl,2.755,-,-,-
COc1ccc(CN2CCOC3(CCCN(c4cnccn4)C3)C2)cc1 (stereo unspecified),-,5.454,-0.8442,9.165

For reference, 2 entries once more:

Compound,Toxoplasma,Pks13 thioesterase,PfKRS1,CoaBC
COc1cccc(C2CCCN2CCCNS(C)(=O)=O)c1 (stereo unspecified),5.642,-0.2342,0.3683,-3.412
Cc1ccc(Cl)c(CN2CCC3(CC2)C(C(=O)O)CC(=O)N3C)c1F (stereo unspecified),8.225,-34.1,5.96,-0.6536